Values from PubChem BioAssay AID1508597 (Cure First, 2020)
Shown is a random part of about 2,100 reagents. 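Calls flag viability under 80% in either arm, not effects specific to rucaparib; the reference for percent is not stated.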 A number with no mark means an inactive call. No sequences are given here. Not stated in the record: the 100% reference.

- Assay: 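Survival screen with siRNA in ovarian cancer cells derived from patients, with or without rucaparib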 (primary screen)
- Cells: human ovarian carcinoma lines grown from tumours: OCI-P5x (papillary serous) and OCI-C5x (clear cell)
- Reagent: siRNA pool against human genes, 1.25 pmol siRNA per well
- Duration: 72 h or 96 h, depending on the cell culture
- Challenge: rucaparib 20 µM (about IC30) or vehicle, present until read-out
- Measurement: 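ATP luminescence measured at 72 or 96 h according to the culture, then normalised and expressed as percent viability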
- Reading the numbers: viability, normalised: higher = more viable cells remaining
- Call rule: 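Active when normalised viability falls below 80 percent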
- Calls: active = viability under 80%; inactive = viability 80% or more

viability, normalised (%)	gene knocked down	rucaparib or vehicle	cell line	technical replicate
51.7 (active)	AIRE (autoimmune regulator)	Rucaparib	OCI-C5x (clear cell)	1
50 (active)	AIRE (autoimmune regulator)	Rucaparib	OCI-C5x (clear cell)	2
45.3 (active)	AIRE (autoimmune regulator)	Rucaparib	OCI-C5x (clear cell)	3
55.7 (active)	AIRE (autoimmune regulator)	Rucaparib	OCI-P5x (serous)	1
74 (active)	AIRE (autoimmune regulator)	Rucaparib	OCI-P5x (serous)	2
55.2 (active)	AIRE (autoimmune regulator)	Rucaparib	OCI-P5x (serous)	3
55.8 (active)	AIRE (autoimmune regulator)	Vehicle	OCI-C5x (clear cell)	1
41.5 (active)	AIRE (autoimmune regulator)	Vehicle	OCI-C5x (clear cell)	2
41.3 (active)	AIRE (autoimmune regulator)	Vehicle	OCI-C5x (clear cell)	3
70 (active)	AIRE (autoimmune regulator)	Vehicle	OCI-P5x (serous)	1
64.9 (active)	AIRE (autoimmune regulator)	Vehicle	OCI-P5x (serous)	2
63.2 (active)	AIRE (autoimmune regulator)	Vehicle	OCI-P5x (serous)	3
51.4 (active)	MIER3 (MIER family member 3)	Rucaparib	OCI-C5x (clear cell)	1
38.5 (active)	MIER3 (MIER family member 3)	Rucaparib	OCI-C5x (clear cell)	2
46.2 (active)	MIER3 (MIER family member 3)	Rucaparib	OCI-C5x (clear cell)	3
49.4 (active)	MIER3 (MIER family member 3)	Rucaparib	OCI-P5x (serous)	1
58 (active)	MIER3 (MIER family member 3)	Rucaparib	OCI-P5x (serous)	2
42.5 (active)	MIER3 (MIER family member 3)	Rucaparib	OCI-P5x (serous)	3
55.2 (active)	MIER3 (MIER family member 3)	Vehicle	OCI-C5x (clear cell)	1
65.3 (active)	MIER3 (MIER family member 3)	Vehicle	OCI-C5x (clear cell)	2
56.7 (active)	MIER3 (MIER family member 3)	Vehicle	OCI-C5x (clear cell)	3
66.6 (active)	MIER3 (MIER family member 3)	Vehicle	OCI-P5x (serous)	1
70.8 (active)	MIER3 (MIER family member 3)	Vehicle	OCI-P5x (serous)	2
71.3 (active)	MIER3 (MIER family member 3)	Vehicle	OCI-P5x (serous)	3
49.6 (active)	RB1 (RB transcriptional corepressor 1)	Rucaparib	OCI-C5x (clear cell)	1
35 (active)	RB1 (RB transcriptional corepressor 1)	Rucaparib	OCI-C5x (clear cell)	2
36.4 (active)	RB1 (RB transcriptional corepressor 1)	Rucaparib	OCI-C5x (clear cell)	3
26.7 (active)	RB1 (RB transcriptional corepressor 1)	Rucaparib	OCI-P5x (serous)	1
35.4 (active)	RB1 (RB transcriptional corepressor 1)	Rucaparib	OCI-P5x (serous)	2
34.8 (active)	RB1 (RB transcriptional corepressor 1)	Rucaparib	OCI-P5x (serous)	3
38.7 (active)	RB1 (RB transcriptional corepressor 1)	Vehicle	OCI-C5x (clear cell)	1
29.9 (active)	RB1 (RB transcriptional corepressor 1)	Vehicle	OCI-C5x (clear cell)	2
28.6 (active)	RB1 (RB transcriptional corepressor 1)	Vehicle	OCI-C5x (clear cell)	3
36.5 (active)	RB1 (RB transcriptional corepressor 1)	Vehicle	OCI-P5x (serous)	1
54.4 (active)	RB1 (RB transcriptional corepressor 1)	Vehicle	OCI-P5x (serous)	2
57.3 (active)	RB1 (RB transcriptional corepressor 1)	Vehicle	OCI-P5x (serous)	3

The list goes on; the last 3 above are carried over.
viability, normalised (%)	gene knocked down	rucaparib or vehicle	cell line	technical replicate
36.5 (active)	RB1 (RB transcriptional corepressor 1)	Vehicle	OCI-P5x (serous)	1
54.4 (active)	RB1 (RB transcriptional corepressor 1)	Vehicle	OCI-P5x (serous)	2
57.3 (active)	RB1 (RB transcriptional corepressor 1)	Vehicle	OCI-P5x (serous)	3
45.7 (active)	H4C15 (H4 clustered histone 15)	Rucaparib	OCI-C5x (clear cell)	1
35.4 (active)	H4C15 (H4 clustered histone 15)	Rucaparib	OCI-C5x (clear cell)	2
48.6 (active)	H4C15 (H4 clustered histone 15)	Rucaparib	OCI-C5x (clear cell)	3
55.4 (active)	H4C15 (H4 clustered histone 15)	Rucaparib	OCI-P5x (serous)	1
63.7 (active)	H4C15 (H4 clustered histone 15)	Rucaparib	OCI-P5x (serous)	2
48.7 (active)	H4C15 (H4 clustered histone 15)	Rucaparib	OCI-P5x (serous)	3
64.2 (active)	H4C15 (H4 clustered histone 15)	Vehicle	OCI-C5x (clear cell)	1
56.4 (active)	H4C15 (H4 clustered histone 15)	Vehicle	OCI-C5x (clear cell)	2
62.4 (active)	H4C15 (H4 clustered histone 15)	Vehicle	OCI-C5x (clear cell)	3
73.1 (active)	H4C15 (H4 clustered histone 15)	Vehicle	OCI-P5x (serous)	1
79 (active)	H4C15 (H4 clustered histone 15)	Vehicle	OCI-P5x (serous)	2
74.4 (active)	H4C15 (H4 clustered histone 15)	Vehicle	OCI-P5x (serous)	3
59.2 (active)	CACNA1A (calcium voltage-gated channel subunit alpha1 A)	Rucaparib	OCI-C5x (clear cell)	1
36.3 (active)	CACNA1A (calcium voltage-gated channel subunit alpha1 A)	Rucaparib	OCI-C5x (clear cell)	2
48.2 (active)	CACNA1A (calcium voltage-gated channel subunit alpha1 A)	Rucaparib	OCI-C5x (clear cell)	3
81.3	CACNA1A (calcium voltage-gated channel subunit alpha1 A)	Rucaparib	OCI-P5x (serous)	1
56.5 (active)	CACNA1A (calcium voltage-gated channel subunit alpha1 A)	Rucaparib	OCI-P5x (serous)	2
75.9 (active)	CACNA1A (calcium voltage-gated channel subunit alpha1 A)	Rucaparib	OCI-P5x (serous)	3
43.9 (active)	CACNA1A (calcium voltage-gated channel subunit alpha1 A)	Vehicle	OCI-C5x (clear cell)	1
55.5 (active)	CACNA1A (calcium voltage-gated channel subunit alpha1 A)	Vehicle	OCI-C5x (clear cell)	2
43.5 (active)	CACNA1A (calcium voltage-gated channel subunit alpha1 A)	Vehicle	OCI-C5x (clear cell)	3
50.7 (active)	CACNA1A (calcium voltage-gated channel subunit alpha1 A)	Vehicle	OCI-P5x (serous)	1
95	CACNA1A (calcium voltage-gated channel subunit alpha1 A)	Vehicle	OCI-P5x (serous)	2
89.8	CACNA1A (calcium voltage-gated channel subunit alpha1 A)	Vehicle	OCI-P5x (serous)	3
